Results on 17 sequences are retold here after the DeepSol protein solubility set.

The nature of this series: soluble on expression in E. coli; label from the status in PepcDB or PDB records.

As to “MAHHHHHHMAGRSYVSPKDERAFVAILAKDPECSQCFECGAPSPQWCDVMHGTFICLNCSGQHRGLGVHLSFVRSSTMDGWVDWKPEKLRQMELGGNRRARLYFEEHKVPNTPLKARYESLPALRYADMLESEALGKPFSEASWQPPAWYTRLQAAASLAGPFPTSSYPQTDLNRFAGVGSNGQPHVMSDNSEGDREWYSALYSGWSAVSQKTAELAQHATKAVQGADVEGMRSSLAQTWAGVSATVSAYAADLQQRIAEGGGRDKDDGLDRMLQNAREAQTESSVDNRAAGQTRYGHIEGSRGNGPGSRIAVQARPVGAASPESSTVYQGRVLRQSASESSPTESVTASASSGWDSPSRASPSAALPQTQPTSSRPVNPLGGDAGGGGASPPASQSTKKDEWSWDNENF”, the “soluble on expression in E. coli” value was “not soluble”. “MESIYLQKHLGACLTQGLAEVARVRPVDPIEYLALWIYKYKENVTMEQLRQKEMAKLERERELALMEQEMMERLKAEELLLQQQQLALQLELEMQEKERQRIQELQRAQEQLGKEMRMNMENLVRNEDILHSEEATLDSGKTLAEISDRYGAPNLSRVEELDEPMFSDIALNIDQDL”: the “soluble on expression in E. coli” value is listed as “not soluble”.

For the sequence “MFKFNEDEENLKCSFCGKDQDQVKKLVAGSGVYICNECIELCSEIVEEELAQNTSEAMTELPTPKEIMDHLNEYVIGQEKAKKSLAVAVYNHYKRIQQLGPKEDDVELQKSNIALIGPTGSGKTLLAQTLAKTLNVPFAIADATSLTEAGYVGDDVENILLRLIQAADFDIDKAEKGIIYVDEIDKIARKSENTSITRDVSGEGVQQALLKILEGTTASVPPQGGRKHPNQEMIQIDTTNILFILGGAFDGIEEVIKRRLGEKVIGFSSNEADKYDEQALLAQIRPEDLQAYGLIPEFIGRVPIVANLETLDVTALKNILTQPKNALVKQYTKMLELDDVDLEFTEEALSAISEKAIERKTGARGLRSIIEESLIDIMFDVPSNENVTKVVITAQTINEETEPELYDAEGNLINNSKTSA”, the “soluble on expression in E. coli” value is on record as “not soluble”. With “MGSDKIHHHHHHMRSDAIKKGHLRAPNRSLLRACGLKDEDFDKPFIGVANSYIDIIPGHYFLNDYAKIIKDEIRKNGCVPFEFNTIGVDDGIAMGHEGMLYSLPSRELIANSIETVMNAHQLDALICIPNCDKITPGMLMGALRVNVPTIFVSGGPMASGVTKKGEKISLSSVFEAVGAYESKKISEEEFKDIECSACPSGGSCSGMFTANSMNTLCEAMGIALEGNGTILALSKEREELLRKAARRICEIALDERFKIRNIITQKAVRNAMVVDMAMGGSSNTVLHMLAISREAGVALDIKDLNFISSKVAHIAKIAPSLNSVYMDDIHKAGGVSAVMAEISSRQGHILELDALTITGESLKERLKNAKIKDENIIRKVDNAYSKVGGLAILFGNLAKQGCVIKTAGIIGERKFKGKAVCFNSQDEAIKGIIKGKVQKGNVCVIRYEGPKGGPGMQEMLSPTSLLMGMGLGADVALITDGRFSGATRGLSVGHISPEAAEGGLIGLLKDGDEIEIDVDAYTIHANVSEEEIAKRKKEFALPQKEVSSRWLRMYQKLVSNASKGAVLDME”, the “soluble on expression in E. coli” value is “not soluble”. With “SARTCPPNQFSCASGRCIPISWTCDLDDDCGDRSDESASCAYPTCFPLTQFTCNNGRCININWRCDNDNDCGDNSDEAGCSH” the entry was “soluble”. As to “MDPAASSCMRSLQPPAPVWGCLRNPHSEGNGASGLPHYPPTPFSFHQKPDFLATATAAYPDFSASCLAATPHSLPQEEHIFTEQHPAFPQSPNWHFPVSDARRRPNSGPAGGSKEMGTSSLGLVDTTGGPGDDYGVLGSTANETEKKSSRRRKESSDNQENRGKPEGSSKARKERTAFTKEQLRELEAEFAHHNYLTRLRRYEIAVNLDLSERQVKVWFQNRRMKWKRVKGGQPISPNGQDPEDGDSTASPSSE”, the “soluble on expression in E. coli” value is “soluble”. In the case of “MVREGIVLGHKISKKGVQVNKAKVDVMMQLQPPKTGKDIRSFLGHAGFYRRFIKDFSKLARPLTRLLCKEAEFIFEEECLTAFKSTKEALVSAPIVQAPNRDYPFEIMCDDSDYAVGAVLGQKIDRKLHVIYYASGTMDDTQVRYATTEKELLAVVFAFEKFRSYLVGSKVTVYTDHAALRHIYAKKDTKPRLLRWILLLQEFDMEIVDKKGIENGVADHLSRMRIEDEVPIDDSMPEEQLMAIQQLNESAQINKSLDQVCAVEDKLMWYADHVKYLFGGEEPPNLSSYEKKKFFKDINHF” it was “soluble”; in that of “MSLSPNPLLQVRNLSVSFTTNDGVVDAVKNVSFDIRPGETLAIVGESGSGKSVSTNALMQLLPKNARIHPESSIMFEGEELLNKTDTQMRRIRGDRIGMIFQEPMTSLNPYMRVGVQVAEAIRCHRNVSQNQAKQRVLELFQLVHLPDPKGAYQKFPHEFSGGQLQRIMIAMALINEPDILIADEPTTALDVTVQAEVLRLIKEIQANMGMAILFITHDLGVVKFVADRVLVMCKGDVVEQGSTEQLFLQPEHDYTRMLINSIPKGSKDPVAEGHHHHHH”, “soluble”; in that of “MSKRDFYEVLGVGRDASERDIKKAYKRLAMKYHPDRNSGDAGAAEKFKEVKEAYEILTDAQKKAAYDQYGHAAFEQGAGGFGGGGFGGGGADFGDIFGDVFGDIFGGGRRGGGPRAQRGSDLRYNMELSLEEAVRGCSKEIEVPTLVHCDACDGSGAKKGTSAQTCGTCHGHGQVQMRQGFFAVQQTCPTCHGKGKIIKDPCNVCHGQGRKQKTKTLNVKIPAGVDTGDRIRLSGEGEAGEMGAPAGDLYVQVHVKEHHIFERDGNNLYCEVPVSFAMAALGGEVEVPTLDGRVSLKVPAETQTGRMFRMRGKGVKGVRSAALGDLIVKLVVETPVNLSARQKELLKEFEESCGGEAATKHKPKAEGFFNGVKKFFDDLTS”, “not soluble”.

In the case of “MPLAYSTHDNFYESPKTPQPTWDHVHAQFPLGEPARNLDKFIEAMFQSVSPLAGVAAAPSQIAALQQIQALMTFQMQQNNLFPKIDTISKSPTPELASPSAKRMRLSPSTSSHSDVASTSKGTNGQDQSKNSPTNSDPFYTIGQSTPNTSSFLDTSNSSFGAPSTVVANPMTNYQLAFQAKLGSLHSLIGDSVQSLTSDRMIDFLSNKEKYECVISIFHAKVAQKSYGNEKRFFCPPPCIYLIGQGWKLKKDRVAQLYKTLKASAQKDAAIENDPIHEQQATELVAYIGIGSDTSERQQLDFSTGKVRHPGDQRQDPNIYDYCAAKTLYISDSDKRKYFDLNAQFFYGCGMEIGGFVSQRIKVISKPSKKKQSMKNTDCKYLCIASGTKVALFNRLRSQTVSTRYLHVEGNAFHASSTKWGAFTIHLFDDERGLQETDNFAVRDGFVYYGSVVKLVDSVTGIALPRLRIRKVDKQQVILDASCSEEPVSQLHKCAFQMIDNELVYLCLSHDKIIQHQATAINEHRHQINDGAAWTIISTDKAEYRFFEAMGQVANPISPCPVVGSLEVDGHGEASRVELHGRDFKPNLKVWFGATPVETTFRSEESLHCSIPPVSQVRNEQTHWMFTNRTTGDVEVPISLVRDDGVVYSSGLTFSYKSLERHGPCRIVSNY”, the “soluble on expression in E. coli” value was “not soluble”. As for “MSGGGKDRIAVFPSRMAQTLMKTRLKGAQKGHSLLKKKADALNLRFRDILRKIVENKVLMGEVMKEAAFSLAEAKFTAGDFSHTVIQNVSQAQYRVRMKKENVVGVFLPVFDAYQDGPDAYDLTGLGKGGANIARLKKNYNKAIELLVELATLQTCFITLDEAIKVTNRRVNAIEHVIIPRIENTLTYIVTELDEMEREEFFRMKKIQANKKKLKEQEAAQKALEGPGPGEDAAHSENNPPRNLLASEEDNLPVLFN”, the “soluble on expression in E. coli” value is on record as “not soluble”. “MSWMLRSLSARFSRNRQQQQKSQTQDASFDTKKFVQCKVLLLDGAHLNIVVPRNAVGSELYEEVFYSLDLEERDYFGLQYTDPFNVQHWLDPTKKVAKQVAIGPPFTLRFRVKFFTSEPSSNLKEELTRYQFFLQIKQDISSGRLQCPHQLAIELAAFALQSELGDYNPELHTALFISEFRFHPEQDEKMEVEILERYKACRGQTPAQAELNYLNKARWIEMYGVDMHIVEGKDGNTYRLGLTPQGMLVFDGPQKIGLFLWEKLQKLDFKNKKITLVVEEDADQSNNGQIQLHTFVFHLTSEKAAKHFWKCAIEQHAFFRLKSRPIQANRKIQFFRLGSTFKYRGRTEYETIHKEGARLSRRQSCSFERRPSQRYGPRQSHVTNAQIRDAKRAEMRQQIIEQQRANDQQRTHAKSDPTSPHSIIQNVPLPTSPDLKKPVNNSNPFISDPLTPSSSSSSSSHNLSHVTKITVGTIGNLDTPSSSAAPSSYIPRPVVSTSTSFSHPPPLPAHQSNSKIPRMSSASEQRKSSQPPQPAVRMQTQFEEPRKYSQNGCAPPSRIVPPMQHQRRIVTDF”: the “soluble on expression in E. coli” value was “not soluble”. In the case of “MGQGSGDDGVPPAPFSSAAAAAHSPPHSPLSVGVSSASSATSSSSTPPSSTSPAGVSASGARNVETDWKQSGDENLAELCIFHVPDKSVSLPNPKRAECTLPMNLILKSSSKNRKKSSIWSSDHIPRGVRFGPLVGEIRLVDVDTALVCPAEASMAGGGPAQEDVPFDEAPEEWKIYSPSGGRLNKTICVKDDARSNWMKYVAAAEEEDFQNLVAAQIGNDIYFYTVKKIEANTELSFWFSRDYARKLNYSTRPYVRVRRPATQLIPSAPPASASTAIASLAETIVAIDYSVKKLIESPIDTLSTDASSASDEEMIDVEEQESCTRPVAEVTRPNVIQNPVVRPVATKVNNFPGIPVRLGNFYASPLVDFKEFMRKSLQLKLVDTSMFVSPVAQTTAAITATGGRSGQPIDVQPVLAATAGAHFGNYAAIYGSQDFQHELSKPLYTSASPAFGGGGGMGGGFGMGGSAHTSSFHQLPFVNHSSSSHNDSSFNGVPNYVQQQENGKTRYACKDCNKTFGQLSNLKVHVRTHTGERPFKCEICTKEFTQLAHLQKHHLVHTGERPHRCDICDKRFSSTSNLKTHLRLHNGQKPYTCDVCDAKFTQYVHLRLHKRLHANERPYSCGTCGKKYISPSGLRTHWKTTTCKEEDMKDSMRDDLMDIKGEIDEGSMSGSGYGNLGIFENTLNSELKRPLMPIETIYSKYNLPNASLLGQGPSGMQEQQAPPPTSQQQQHMMYGNTMGHMGQGSHLQGPPPPPQHFQMDHSGMQNGGGIPHQHQLIQGGPSSGSGQQQHPQHNGIHRLPDLKNPLLPSLGLPHYP”, the “soluble on expression in E. coli” value is given as “not soluble”. In the case of “MLSSSAKIVKPNGEKQDELESGISQALLQLEMNSDLRVQLWELNITAAKEMEVGGGQKAIIIFVLLPRLKSFQKIQVGLVRELEKKFSMKHVVFIAQRRILPESTRKKTVWKISKSATEAATQRHP” it was “not soluble”.

In the case of “MSGASKKVSEEELQKQYADYRAQFEQWKENNKGSIGTEAYNSYVQQFEQWEKEVEARTSQQQKHRKAAAVDKEAEAAAAAYAQSQEAYMAHHLRGMEQTEMQKRAAAAAQLQQQQMMQNMMMQRPPQHQQPPPQDVMFGAVGRVAQGAPAAAPPPTQQPPPQLWGNNKPIYDARDPLFAKWGERAASAHCKPETEQQINPVACWLLLDALREKKMVLAPHSNTCPPPQIGGHQI”, the “soluble on expression in E. coli” value was “not soluble”.

As to “MHHHHHHSSGVDLGTENLYFQSMELAVGIDLGTTYSCVGVFQQGRVEILANDQGNRTTPSYVAFTDTERLVGDAAKSQAALNPHNTVFDAKRLIGRKFADTTVQSDMKHWPFRVVSEGGKPKVRVCYRGEDKTFYPEEISSMVLSKMKETAEAYLGQPVKHAVITVPAYFNDSQRQATKDAGAIAGLNVLRIINEPTAAAIAYGLDRRGAGERNVLIFDLGGGTFDVSVLSIDAGVFEVKATAGDTHLGGEDFDNRLVNHFMEEFRRKHGKDLSGNKRALRRLRTACERAKRTLSSSTQATLEIDSLFEGVDFYTSITRARFEELCSDLFRSTLEPVEKALRDAKLDKAQIHDVVLVGGSTRIPKVQKLLQDFFNGKELNKSINPDEAVAYGAAVQAAVLMGD”, the “soluble on expression in E. coli” value is listed as “soluble”. In the case of “GSHMRIVVKTLMGRTIILEVEPSDTIENVKAKIQDKEGIPPDQQRLIFAGKQLEDGRTLSDYNIHNHSALYLLLKLRGGGGGGSG” it was “soluble”.
